Source: article PMC12756916
No constants are given. Whether binding was seen depends on the method and setting. Some binding calls cover weakened binding; strength is not graded here.

How the values were obtained:
[1] = molecular target: block V of the repeats-in-toxins (RTX) domain of the adenylate cyclase (CyaA) protein from Bordetella pertussis (Bordetella pertussis) (UniProt P0DKX7); test: dynamic light scattering; 1 uM RTX peptide in 20 mM glycine, 20 mM potassium acetate, 50 mM KCl, pH 5.6, 25 C; without multivalent cations, with saturating Ca2+ or with Tb3+; oligomeric state inferred from the hydrodynamic diameter; both purified
[2] = molecular target: block V of the repeats-in-toxins (RTX) domain of the adenylate cyclase (CyaA) protein from Bordetella pertussis (Bordetella pertussis) (UniProt P0DKX7); test: anomalous small-angle X-ray scattering (ASAXS); condensed aggregates from 20 uM RTX peptide, pH 5.6, with 0.5 mM Tb3+, 0.5 mM Lu3+ or an equimolar mixture of both (500 uM total); fitted with a uniform cylinder model; both purified

block V of the repeats-in-toxins (RTX) domain of the adenylate cyclase (CyaA) protein from Bordetella pertussis (from UniProt P0DKX7 1529-1681) (domain or fragment)
binding [1]: binds
binding [2]: binds
